Measured values from PMC7751685.
No constants are given. Whether binding was seen depends on the method and setting. Binding seen in cells or lysates may run through a third protein. Each block holds one molecule with its values, some of them ahead of it.

What was measured:
[1] = target: T1, B55δ regulatory subunit of PP2A (endogenous) (human (endogenous in BT549)) (UniProt Q66LE6); experiment: co-IP; endogenous proteins, BT549 and HS578T lysates in NETN buffer; IP with anti-CDC25B, anti-PP2A-C, anti-B56δ, anti-B55δ or anti-AMPKα against control IgG; cells also treated with metformin, LB100, siAMPK, siCDC25B, siB56δ, CDC25B knockout or CDC25B overexpression
T1 sequence: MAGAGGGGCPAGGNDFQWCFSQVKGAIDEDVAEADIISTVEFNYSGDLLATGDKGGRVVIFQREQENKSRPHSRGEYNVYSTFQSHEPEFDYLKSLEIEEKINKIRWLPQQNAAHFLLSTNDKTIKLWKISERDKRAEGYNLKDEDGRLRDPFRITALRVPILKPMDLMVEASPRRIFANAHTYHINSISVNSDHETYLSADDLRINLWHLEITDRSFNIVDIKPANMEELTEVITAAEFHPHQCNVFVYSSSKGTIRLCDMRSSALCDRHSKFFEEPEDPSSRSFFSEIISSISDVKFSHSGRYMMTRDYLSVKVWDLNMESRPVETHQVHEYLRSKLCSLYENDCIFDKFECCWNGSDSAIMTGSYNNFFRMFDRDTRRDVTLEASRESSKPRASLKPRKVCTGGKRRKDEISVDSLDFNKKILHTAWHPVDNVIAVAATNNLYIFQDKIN

[2] = target: CDC25B (endogenous) (human (endogenous in BT549 and HS578T)); experiment: as above

binding [1]: no binding
Molecule: CDC25B (endogenous) (human (endogenous in BT549 and HS578T))

binding [2]: no binding
B1: B55δ regulatory subunit of PP2A (endogenous) (protein, UniProt Q66LE6 1-453)
chain: T1 sequence
